Some of the results follow.
target: OsWRKY34 (Oryza sativa, UniProt Q0JBA9 1-250); assay: protein-binding microarray (RPBM); PBS, 2% BSA, 51.3 ng/ul salmon testes DNA, 50 uM zinc acetate, 200 nM TF, 25 C, 1 h; high values mean tight binding; settings: protein: recombinant; tags: N-terminal polyhistidine and DsRed monomer fusion (pET32a); label: CyDye5-dUTP incorporated in the synthesized complementary strand; 3' TTTTT single-stranded linker to array surface; dsDNA, one strand shown
Outline: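 Binding signal is defined as the fluorescence intensity of each feature in arbitrary units, read on an Axon 4000B scanner. Transcription factors with N-terminal polyhistidine and DsRed fusions came from E. coli BL21-CodonPlus and were purified on Ni–NTA. They were incubated at 200 nM for 1 h at 25 °C on a custom Agilent array that had been made double-stranded with Cy5-dUTP, with 50 µM zinc acetate present, and the array was washed.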

By UniProt entry, the sequences of proteins in these tests, tags left out.
UniProt Q0JBA9, entry or part of it: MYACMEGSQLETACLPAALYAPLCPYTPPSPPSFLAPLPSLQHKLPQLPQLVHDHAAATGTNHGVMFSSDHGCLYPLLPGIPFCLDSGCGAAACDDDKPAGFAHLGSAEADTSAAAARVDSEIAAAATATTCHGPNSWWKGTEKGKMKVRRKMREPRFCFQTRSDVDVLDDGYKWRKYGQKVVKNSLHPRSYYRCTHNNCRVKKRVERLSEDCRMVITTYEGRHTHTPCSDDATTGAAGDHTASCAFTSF

Sequence | binding signal
ATCGCGCAGCTGTGTTCTGCTTTGCCGGGTAGGCGTTTTTCGGAGTCACCTAGTGCAG | 10600 fluorescence intensity (a.u.)
CGTTGTTTAAGTCTTATTATAGCTAGATCGTTCATCCTTACGGAGTCACCTAGTGCAG | 8510 fluorescence intensity (a.u.)
GCTTCGCGCGCGCGCGCGTCTCTCTCCGTCCCAAGCTCGCCGGAGTCACCTAGTGCAG | 9720 fluorescence intensity (a.u.)
CTTCGGCCTTCGTTTGACCGCTTCTAATCTATGTTATGTGCGGAGTCACCTAGTGCAG | 8670 fluorescence intensity (a.u.)
CGCCTCACTTGCGCCGGCGACCGGATGACGCCTGCATCCCCGGAGTCACCTAGTGCAG | 8650 fluorescence intensity (a.u.)
CGGGGATGCGGCGGGCTGTGGCGTGATGTGTGGATCGGAGCGGAGTCACCTAGTGCAG | 10100 fluorescence intensity (a.u.)
TGAGGTTGGGGTTGTGGCGCGGGACGAAGGCGGAGGACTCCGGAGTCACCTAGTGCAG | 9840 fluorescence intensity (a.u.)
TGGCAATGGGGCGGGTCGGGGCCGGGTTGGTCTGGAACGGCGGAGTCACCTAGTGCAG | 14500 fluorescence intensity (a.u.)
CCTCATGATGATGCCGAACGTCTCGACATTGACCGCGCCCCGGAGTCACCTAGTGCAG | 9370 fluorescence intensity (a.u.)
GGCCTGTTTTGTTTCGGGCTAACGTTTGGCCCACGAAACACGGAGTCACCTAGTGCAG | 8100 fluorescence intensity (a.u.)
TTTTTCTTTTCTCGCGTACAGCTGGACGCTTCGTTTGCTTCGGAGTCACCTAGTGCAG | 11100 fluorescence intensity (a.u.)
AGTTGAATTTTCTAGTTACTACTAACTAATTGCTTCTCTACGGAGTCACCTAGTGCAG | 8270 fluorescence intensity (a.u.)
ATTAGCACACCATTGAGCATGAGCCTGACAAACTTCATTTCGGAGTCACCTAGTGCAG | 8080 fluorescence intensity (a.u.)
TAGCCCACTGTAACATGTTCACATTGGATAAAATCAAGATCGGAGTCACCTAGTGCAG | 8250 fluorescence intensity (a.u.)
GCCCACGCTCACCGACTCCATCGACGTCACGCTCACCGCCCGGAGTCACCTAGTGCAG | 8480 fluorescence intensity (a.u.)
CGCCTACTTCTTCTGCATTACCCGCGCCTCCCGAAAAAAACGGAGTCACCTAGTGCAG | 8510 fluorescence intensity (a.u.)
GTCTAGTTCACATCGTGTCAGTGTTCCAAAATCGCCTAGCCGGAGTCACCTAGTGCAG | 9280 fluorescence intensity (a.u.)
GGCAAGAGCTTAGAGGATGATGATAAAGAAGGGTTCTTCCCGGAGTCACCTAGTGCAG | 8350 fluorescence intensity (a.u.)
TGGCATGGTGGTACTACTACTCTCTGTTCCGTTTCAAAAACGGAGTCACCTAGTGCAG | 9500 fluorescence intensity (a.u.)
CGGAAGCATATATATGTACACTGTCACTGACATGCTCGTCCGGAGTCACCTAGTGCAG | 8240 fluorescence intensity (a.u.)
AAAGGGAAAACAACTTATTCCTTTTTGCATTTTATTTTCCCGGAGTCACCTAGTGCAG | 9590 fluorescence intensity (a.u.)

Sequence | binding signal
CTCTGTGTTGTTTTTGGCATGTGTTTGATATTTGGAGTTCCGGAGTCACCTAGTGCAG | 16600 fluorescence intensity (a.u.)
GCTTGGCCGTCGGGGTACGGGTACGGCGCCGTGTTGACCACGGAGTCACCTAGTGCAG | 9100 fluorescence intensity (a.u.)
TGTCGATGTCGCATACTCCGTTCGGTTTTATTTTAATTGACGGAGTCACCTAGTGCAG | 9800 fluorescence intensity (a.u.)
CGACCCCTGCAAACTTATTTCTGTCGGTTTAATCTCTCTCCGGAGTCACCTAGTGCAG | 9960 fluorescence intensity (a.u.)
TTGACTTTTTAACCAACGTTTGACTATTCGTCTTATTCAACGGAGTCACCTAGTGCAG | 10100 fluorescence intensity (a.u.)
GCTGCTTTTTTTTCTCTTCCTATGTGGTTCTTCGTCATCACGGAGTCACCTAGTGCAG | 8430 fluorescence intensity (a.u.)
CCTTTTCAGTGCCATTGATTTTTCTTTTATTTTGTCTCGTCGGAGTCACCTAGTGCAG | 10000 fluorescence intensity (a.u.)
ACCCGCCGTCTGCCACGTCAGCTTGCCGCCCACCTCTGGGCGGAGTCACCTAGTGCAG | 9540 fluorescence intensity (a.u.)
TTCACCTCCCAACATTCTCGCCGATCTTTTTCCTCTCATCCGGAGTCACCTAGTGCAG | 9670 fluorescence intensity (a.u.)
CCGCGCGGCACTACTTCCGGCAGCTCGTCTCCGCCGTCGACGGAGTCACCTAGTGCAG | 9150 fluorescence intensity (a.u.)
GCATGTGTGCCATTCGTTCATTCATATTCTCATCACTAGTCGGAGTCACCTAGTGCAG | 9720 fluorescence intensity (a.u.)
CCTTTCTGGCTATAATCTCTCTTGTTCCGTTTTCGCAATGCGGAGTCACCTAGTGCAG | 8400 fluorescence intensity (a.u.)
CTTGCATGTTTGTGGAGTGATATATTACATATTGATCTATCGGAGTCACCTAGTGCAG | 9230 fluorescence intensity (a.u.)
TGTGGTTGGGTTCAGGGATGATTTTGCAAACTACAGATGACGGAGTCACCTAGTGCAG | 9240 fluorescence intensity (a.u.)
CCGCGCCACCGATGTTCTCATCCAAACACATCACCTCCTACGGAGTCACCTAGTGCAG | 8030 fluorescence intensity (a.u.)
GGGCCCGCCATCGACCGAGCCACCGAAATCCCGCGCAAAGCGGAGTCACCTAGTGCAG | 8420 fluorescence intensity (a.u.)
TTGCCCATTAATTTACCCAAGTATCCATGCGGACCATGCCCGGAGTCACCTAGTGCAG | 8940 fluorescence intensity (a.u.)
CTCTCTATAATGTCATTGGACCTACTTTACATGGTTTAAACGGAGTCACCTAGTGCAG | 8830 fluorescence intensity (a.u.)
ACCGCTATCCCTCATCACCCACTGACAAGTTGCCCCACACCGGAGTCACCTAGTGCAG | 10500 fluorescence intensity (a.u.)
TTGTCTCAGCTGCATTATCCTATTTTTAGCTCCCAAATCTCGGAGTCACCTAGTGCAG | 9070 fluorescence intensity (a.u.)
CTAGTCCTTCGTTTGAGTCCTTATATAACATTGATAGTACCGGAGTCACCTAGTGCAG | 8500 fluorescence intensity (a.u.)

Sequence | binding signal
TCGTTGTCCGCATAGTTTAGATTAGATTTACACGGCTTTACGGAGTCACCTAGTGCAG | 9150 fluorescence intensity (a.u.)
GCGCCCGCTTGCTGCCATTTTGCTTGTGGACTACCCTTTCCGGAGTCACCTAGTGCAG | 10700 fluorescence intensity (a.u.)
CGCGTTATTTTCAGCGGTTGGGTTTGGATGATTAGCTACACGGAGTCACCTAGTGCAG | 9550 fluorescence intensity (a.u.)
CATCTTCGCAGCAACTCAGTCATCAGCCCATAGCCATTTACGGAGTCACCTAGTGCAG | 8950 fluorescence intensity (a.u.)
CTTCTCGTGCAACTCTAGTACATGGGTTTCGGAATAGTGACGGAGTCACCTAGTGCAG | 9640 fluorescence intensity (a.u.)
CACACTCCACAGACGTCTACCTGACTTTTTATGCTATGTTCGGAGTCACCTAGTGCAG | 10400 fluorescence intensity (a.u.)
GACCGGCATTACACTTCTCCTAATATATGGGATTAGGTGACGGAGTCACCTAGTGCAG | 9510 fluorescence intensity (a.u.)
ACCTACCTGACTTCACCGTTCGAGTTCAACAATACCTATGCGGAGTCACCTAGTGCAG | 9060 fluorescence intensity (a.u.)
TTTTCTGGCCTTAGCGGCACATAGATTTCCGCCCAAAACCCGGAGTCACCTAGTGCAG | 10800 fluorescence intensity (a.u.)
CGATCTCTGTTGTATAAATCTTGTCATATTTCGTTAACGACGGAGTCACCTAGTGCAG | 9240 fluorescence intensity (a.u.)
AACTCTATCGCTCTTTTCCTAACTATCTGTTCTATGTACCCGGAGTCACCTAGTGCAG | 8160 fluorescence intensity (a.u.)
ATATCATTTAAAATATTTTTTTTATCGACATGTGGTTGTCCGGAGTCACCTAGTGCAG | 11000 fluorescence intensity (a.u.)
GAACTTTCCTACACACACAAATTTTCAACTTTTCCATCACCGGAGTCACCTAGTGCAG | 12400 fluorescence intensity (a.u.)
TTCATATAGGGTATGCCTCTGTCTAAGGTTGTTTGAAAATCGGAGTCACCTAGTGCAG | 8940 fluorescence intensity (a.u.)
CCTTTTTTTTTACCTACCTCACCACTCAACCTTTTTGCCCCGGAGTCACCTAGTGCAG | 8660 fluorescence intensity (a.u.)
TTTGCTCGGAGGATAGTATGGCTTTGGGTGGGCCGGATTCCGGAGTCACCTAGTGCAG | 11100 fluorescence intensity (a.u.)
TCAGATTCAGCTTCATATGCATACCGTACGACTGTCAATTCGGAGTCACCTAGTGCAG | 9540 fluorescence intensity (a.u.)
CTGTCCGATCCCCTGTCCCAGCACCCTCGTCGCATGTCCACGGAGTCACCTAGTGCAG | 12500 fluorescence intensity (a.u.)
TCCTCTCTTCCCGTCACCTTGGTTTGCCGTCGTCGGCGTCCGGAGTCACCTAGTGCAG | 9270 fluorescence intensity (a.u.)
GTTAACCCCTGTTATATTCATGATTAGTTGCTATTAATTCCGGAGTCACCTAGTGCAG | 9750 fluorescence intensity (a.u.)
TGACTTGTATTTCTTGTGTCTGTTTCTCATCGAGTCATGACGGAGTCACCTAGTGCAG | 10900 fluorescence intensity (a.u.)

Quoted from the listing.
binding signal with TGACTTGTATTTCTTGTGTCTGTTTCTCATCGAGTCATGACGGAGTCACCTAGTGCAG is entered as 10900 fluorescence intensity (a.u.)
binding signal with CTTGCATGTTTGTGGAGTGATATATTACATATTGATCTATCGGAGTCACCTAGTGCAG is entered as 9230 fluorescence intensity (a.u.)
binding signal with GCATGTGTGCCATTCGTTCATTCATATTCTCATCACTAGTCGGAGTCACCTAGTGCAG is entered as 9720 fluorescence intensity (a.u.)
binding signal with GGCCTGTTTTGTTTCGGGCTAACGTTTGGCCCACGAAACACGGAGTCACCTAGTGCAG is entered as 8100 fluorescence intensity (a.u.)
binding signal with CGCGTTATTTTCAGCGGTTGGGTTTGGATGATTAGCTACACGGAGTCACCTAGTGCAG is entered as 9550 fluorescence intensity (a.u.)
binding signal with GCTTCGCGCGCGCGCGCGTCTCTCTCCGTCCCAAGCTCGCCGGAGTCACCTAGTGCAG is entered as 9720 fluorescence intensity (a.u.)

Remaining list, next part.

Sequence | binding signal
TTCTTTAATCATTATCTTCAGACATGAATCACGTTGACTGCGGAGTCACCTAGTGCAG | 9740 fluorescence intensity (a.u.)
TTCTCTTGATTTGCACCAGCATTTTCTTAGGGTCATTTATCGGAGTCACCTAGTGCAG | 9570 fluorescence intensity (a.u.)
CTGTAAAGTCAAAGTGGTCAAAGGGGAGGGGAGATGTGGGCGGAGTCACCTAGTGCAG | 14600 fluorescence intensity (a.u.)
TACATTGGTATCTATAGCTCTCTCATGCATTGCCTCGTTTCGGAGTCACCTAGTGCAG | 8230 fluorescence intensity (a.u.)
TCACCTCGCCGCCGCCGCCATCGCCTTCTCAATCCCCAATCGGAGTCACCTAGTGCAG | 9630 fluorescence intensity (a.u.)
AACATTTTTTACATTGTCACTGTGGTTTTCACTAACATGACGGAGTCACCTAGTGCAG | 8320 fluorescence intensity (a.u.)
ACTCCGCCATGCCGCGCCGGTCTCCTAGGTTTTCCACTGACGGAGTCACCTAGTGCAG | 9270 fluorescence intensity (a.u.)
GTTGGGTTGAGAATTTTGATGCGTGTGTGAGGTTTGATCTCGGAGTCACCTAGTGCAG | 13500 fluorescence intensity (a.u.)
CTTGGTCTTCATCTGACGTGGCGCTTACGTGGCAATTTGACGGAGTCACCTAGTGCAG | 8800 fluorescence intensity (a.u.)
CTGATCGATCTCCTGATATTTCTTAGGTATATTGCTTGGCCGGAGTCACCTAGTGCAG | 8070 fluorescence intensity (a.u.)
TTGCTGGATTTCATACTCCCACACCCTAATTTGTTGATTTCGGAGTCACCTAGTGCAG | 10100 fluorescence intensity (a.u.)
ATATTTGATGTGATGTTTTTGGCCAAAATTTTTTTAGATCCGGAGTCACCTAGTGCAG | 8500 fluorescence intensity (a.u.)
CGGTCTTGCGACACCACCGATTGTTCGGCTTGCACTGACACGGAGTCACCTAGTGCAG | 8470 fluorescence intensity (a.u.)
CCACACATCACAATTCACACCTTACTGCGGCCGTCGTTTACGGAGTCACCTAGTGCAG | 9310 fluorescence intensity (a.u.)
CCGCTGCCCGTCCCCGCAACCCAACGCCTGATTCGCTTCTCGGAGTCACCTAGTGCAG | 9810 fluorescence intensity (a.u.)
AGGGTGAGAGAGAGTGAGTTTGTTTATTTCGTTTTCCGCGCGGAGTCACCTAGTGCAG | 10100 fluorescence intensity (a.u.)
GTCATGGTCACCAGTTCCAGTTTTTCCGGTTCAACAGCCGCGGAGTCACCTAGTGCAG | 8650 fluorescence intensity (a.u.)
GGTTGGGACTTGGTAAGGTTGTGGTGGTGTCATATGTCTCCGGAGTCACCTAGTGCAG | 13000 fluorescence intensity (a.u.)
TTACGATGACTCTTTACCTTGATTTTCATGAGTCTTTCTTCGGAGTCACCTAGTGCAG | 10700 fluorescence intensity (a.u.)
ATATGTTGCCACGCTGGACCGCCACGTAAGTCAGTCAATCCGGAGTCACCTAGTGCAG | 9020 fluorescence intensity (a.u.)
TGAATTTCGGTCTGTTTATTTGACCTGTTCTTGTACCTGACGGAGTCACCTAGTGCAG | 8400 fluorescence intensity (a.u.)

Source: paper PMC7819943, “Rice protein-binding microarrays: a tool to detect cis-acting elements near promoter regions in rice”
